Among the data in the supplement of paper PMC10849652 are log2 fold change values, retold here.

Amino acid sequences for entries named in this document (tags omitted). A change or cut given only in a name is not applied to a line headed by its entry.
UniProt P51608, whole entry, looked up: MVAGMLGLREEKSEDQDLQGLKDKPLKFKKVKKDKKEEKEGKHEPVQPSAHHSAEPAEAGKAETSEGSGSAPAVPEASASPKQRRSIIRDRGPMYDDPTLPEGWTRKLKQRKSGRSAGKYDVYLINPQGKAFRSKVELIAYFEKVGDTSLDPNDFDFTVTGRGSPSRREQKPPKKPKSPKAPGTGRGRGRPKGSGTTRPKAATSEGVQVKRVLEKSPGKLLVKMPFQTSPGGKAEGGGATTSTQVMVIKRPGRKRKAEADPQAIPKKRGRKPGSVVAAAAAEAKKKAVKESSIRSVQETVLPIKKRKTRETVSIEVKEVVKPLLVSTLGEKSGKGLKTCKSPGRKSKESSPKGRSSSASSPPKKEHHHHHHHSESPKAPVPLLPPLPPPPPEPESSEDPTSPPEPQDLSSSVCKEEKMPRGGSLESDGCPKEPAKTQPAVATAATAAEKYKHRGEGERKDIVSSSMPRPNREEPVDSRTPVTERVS
UniProt P49736, whole entry, looked up: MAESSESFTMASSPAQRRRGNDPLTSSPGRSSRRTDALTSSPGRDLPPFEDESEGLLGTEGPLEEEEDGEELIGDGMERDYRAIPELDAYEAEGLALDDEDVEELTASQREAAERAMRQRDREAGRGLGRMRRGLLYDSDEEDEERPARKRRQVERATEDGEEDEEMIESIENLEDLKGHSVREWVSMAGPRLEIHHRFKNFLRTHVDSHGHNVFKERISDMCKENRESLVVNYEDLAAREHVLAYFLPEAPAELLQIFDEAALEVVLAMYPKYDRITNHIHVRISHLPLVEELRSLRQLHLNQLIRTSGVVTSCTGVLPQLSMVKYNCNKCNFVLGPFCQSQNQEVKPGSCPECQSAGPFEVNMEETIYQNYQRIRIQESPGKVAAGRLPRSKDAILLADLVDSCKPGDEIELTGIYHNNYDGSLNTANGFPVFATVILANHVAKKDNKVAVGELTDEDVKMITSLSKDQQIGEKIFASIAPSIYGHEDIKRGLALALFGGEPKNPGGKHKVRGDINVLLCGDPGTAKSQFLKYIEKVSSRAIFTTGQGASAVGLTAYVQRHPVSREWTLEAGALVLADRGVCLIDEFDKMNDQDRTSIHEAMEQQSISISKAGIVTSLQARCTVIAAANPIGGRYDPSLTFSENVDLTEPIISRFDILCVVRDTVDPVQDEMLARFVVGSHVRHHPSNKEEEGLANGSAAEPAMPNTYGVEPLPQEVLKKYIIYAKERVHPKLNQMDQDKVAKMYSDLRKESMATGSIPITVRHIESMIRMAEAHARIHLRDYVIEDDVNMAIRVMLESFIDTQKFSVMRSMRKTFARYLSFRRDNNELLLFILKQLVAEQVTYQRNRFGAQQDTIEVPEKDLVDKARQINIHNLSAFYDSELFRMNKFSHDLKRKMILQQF
UniProt P26572: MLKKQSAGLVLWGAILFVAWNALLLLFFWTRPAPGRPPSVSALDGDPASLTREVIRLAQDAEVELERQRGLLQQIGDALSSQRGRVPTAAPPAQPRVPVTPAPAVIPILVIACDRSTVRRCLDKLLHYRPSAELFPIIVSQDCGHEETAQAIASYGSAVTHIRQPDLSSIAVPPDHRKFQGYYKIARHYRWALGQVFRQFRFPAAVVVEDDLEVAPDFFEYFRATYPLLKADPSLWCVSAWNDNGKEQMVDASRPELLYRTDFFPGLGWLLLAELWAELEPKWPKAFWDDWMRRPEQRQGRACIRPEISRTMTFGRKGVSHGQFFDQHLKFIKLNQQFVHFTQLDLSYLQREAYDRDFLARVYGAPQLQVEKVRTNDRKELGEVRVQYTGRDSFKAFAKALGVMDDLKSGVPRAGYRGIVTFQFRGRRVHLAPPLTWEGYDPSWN
UniProt Q6ZNC8: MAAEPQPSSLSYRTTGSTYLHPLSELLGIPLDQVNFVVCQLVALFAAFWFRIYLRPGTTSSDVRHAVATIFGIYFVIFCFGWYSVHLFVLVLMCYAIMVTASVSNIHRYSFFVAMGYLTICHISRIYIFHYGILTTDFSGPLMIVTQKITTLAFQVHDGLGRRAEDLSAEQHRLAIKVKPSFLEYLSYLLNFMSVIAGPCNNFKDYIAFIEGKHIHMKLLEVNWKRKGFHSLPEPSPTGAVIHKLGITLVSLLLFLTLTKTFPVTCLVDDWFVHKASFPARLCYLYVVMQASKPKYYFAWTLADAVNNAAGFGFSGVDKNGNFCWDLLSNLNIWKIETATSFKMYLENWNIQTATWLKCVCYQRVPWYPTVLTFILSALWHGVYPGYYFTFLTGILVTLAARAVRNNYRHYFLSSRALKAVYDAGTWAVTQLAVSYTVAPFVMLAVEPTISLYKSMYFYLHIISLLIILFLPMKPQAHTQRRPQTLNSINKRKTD
UniProt Q8IWA4: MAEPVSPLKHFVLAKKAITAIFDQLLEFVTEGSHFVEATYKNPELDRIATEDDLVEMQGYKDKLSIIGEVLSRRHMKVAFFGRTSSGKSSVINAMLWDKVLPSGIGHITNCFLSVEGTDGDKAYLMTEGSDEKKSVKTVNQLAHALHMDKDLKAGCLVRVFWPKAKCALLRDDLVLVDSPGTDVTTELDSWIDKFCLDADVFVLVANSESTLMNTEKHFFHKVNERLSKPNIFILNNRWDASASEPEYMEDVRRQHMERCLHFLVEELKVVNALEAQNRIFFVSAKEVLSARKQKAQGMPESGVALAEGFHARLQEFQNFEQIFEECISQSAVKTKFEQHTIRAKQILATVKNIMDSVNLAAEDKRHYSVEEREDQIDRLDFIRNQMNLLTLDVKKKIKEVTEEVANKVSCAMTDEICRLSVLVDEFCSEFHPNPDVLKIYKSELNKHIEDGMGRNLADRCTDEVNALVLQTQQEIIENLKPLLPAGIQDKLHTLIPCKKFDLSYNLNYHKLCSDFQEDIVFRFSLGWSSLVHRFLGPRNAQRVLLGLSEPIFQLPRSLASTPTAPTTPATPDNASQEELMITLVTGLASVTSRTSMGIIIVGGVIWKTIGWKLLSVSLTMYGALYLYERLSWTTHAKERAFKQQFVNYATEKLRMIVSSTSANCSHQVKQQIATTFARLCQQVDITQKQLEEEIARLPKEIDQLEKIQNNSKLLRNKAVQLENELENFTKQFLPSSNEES
UniProt O15021: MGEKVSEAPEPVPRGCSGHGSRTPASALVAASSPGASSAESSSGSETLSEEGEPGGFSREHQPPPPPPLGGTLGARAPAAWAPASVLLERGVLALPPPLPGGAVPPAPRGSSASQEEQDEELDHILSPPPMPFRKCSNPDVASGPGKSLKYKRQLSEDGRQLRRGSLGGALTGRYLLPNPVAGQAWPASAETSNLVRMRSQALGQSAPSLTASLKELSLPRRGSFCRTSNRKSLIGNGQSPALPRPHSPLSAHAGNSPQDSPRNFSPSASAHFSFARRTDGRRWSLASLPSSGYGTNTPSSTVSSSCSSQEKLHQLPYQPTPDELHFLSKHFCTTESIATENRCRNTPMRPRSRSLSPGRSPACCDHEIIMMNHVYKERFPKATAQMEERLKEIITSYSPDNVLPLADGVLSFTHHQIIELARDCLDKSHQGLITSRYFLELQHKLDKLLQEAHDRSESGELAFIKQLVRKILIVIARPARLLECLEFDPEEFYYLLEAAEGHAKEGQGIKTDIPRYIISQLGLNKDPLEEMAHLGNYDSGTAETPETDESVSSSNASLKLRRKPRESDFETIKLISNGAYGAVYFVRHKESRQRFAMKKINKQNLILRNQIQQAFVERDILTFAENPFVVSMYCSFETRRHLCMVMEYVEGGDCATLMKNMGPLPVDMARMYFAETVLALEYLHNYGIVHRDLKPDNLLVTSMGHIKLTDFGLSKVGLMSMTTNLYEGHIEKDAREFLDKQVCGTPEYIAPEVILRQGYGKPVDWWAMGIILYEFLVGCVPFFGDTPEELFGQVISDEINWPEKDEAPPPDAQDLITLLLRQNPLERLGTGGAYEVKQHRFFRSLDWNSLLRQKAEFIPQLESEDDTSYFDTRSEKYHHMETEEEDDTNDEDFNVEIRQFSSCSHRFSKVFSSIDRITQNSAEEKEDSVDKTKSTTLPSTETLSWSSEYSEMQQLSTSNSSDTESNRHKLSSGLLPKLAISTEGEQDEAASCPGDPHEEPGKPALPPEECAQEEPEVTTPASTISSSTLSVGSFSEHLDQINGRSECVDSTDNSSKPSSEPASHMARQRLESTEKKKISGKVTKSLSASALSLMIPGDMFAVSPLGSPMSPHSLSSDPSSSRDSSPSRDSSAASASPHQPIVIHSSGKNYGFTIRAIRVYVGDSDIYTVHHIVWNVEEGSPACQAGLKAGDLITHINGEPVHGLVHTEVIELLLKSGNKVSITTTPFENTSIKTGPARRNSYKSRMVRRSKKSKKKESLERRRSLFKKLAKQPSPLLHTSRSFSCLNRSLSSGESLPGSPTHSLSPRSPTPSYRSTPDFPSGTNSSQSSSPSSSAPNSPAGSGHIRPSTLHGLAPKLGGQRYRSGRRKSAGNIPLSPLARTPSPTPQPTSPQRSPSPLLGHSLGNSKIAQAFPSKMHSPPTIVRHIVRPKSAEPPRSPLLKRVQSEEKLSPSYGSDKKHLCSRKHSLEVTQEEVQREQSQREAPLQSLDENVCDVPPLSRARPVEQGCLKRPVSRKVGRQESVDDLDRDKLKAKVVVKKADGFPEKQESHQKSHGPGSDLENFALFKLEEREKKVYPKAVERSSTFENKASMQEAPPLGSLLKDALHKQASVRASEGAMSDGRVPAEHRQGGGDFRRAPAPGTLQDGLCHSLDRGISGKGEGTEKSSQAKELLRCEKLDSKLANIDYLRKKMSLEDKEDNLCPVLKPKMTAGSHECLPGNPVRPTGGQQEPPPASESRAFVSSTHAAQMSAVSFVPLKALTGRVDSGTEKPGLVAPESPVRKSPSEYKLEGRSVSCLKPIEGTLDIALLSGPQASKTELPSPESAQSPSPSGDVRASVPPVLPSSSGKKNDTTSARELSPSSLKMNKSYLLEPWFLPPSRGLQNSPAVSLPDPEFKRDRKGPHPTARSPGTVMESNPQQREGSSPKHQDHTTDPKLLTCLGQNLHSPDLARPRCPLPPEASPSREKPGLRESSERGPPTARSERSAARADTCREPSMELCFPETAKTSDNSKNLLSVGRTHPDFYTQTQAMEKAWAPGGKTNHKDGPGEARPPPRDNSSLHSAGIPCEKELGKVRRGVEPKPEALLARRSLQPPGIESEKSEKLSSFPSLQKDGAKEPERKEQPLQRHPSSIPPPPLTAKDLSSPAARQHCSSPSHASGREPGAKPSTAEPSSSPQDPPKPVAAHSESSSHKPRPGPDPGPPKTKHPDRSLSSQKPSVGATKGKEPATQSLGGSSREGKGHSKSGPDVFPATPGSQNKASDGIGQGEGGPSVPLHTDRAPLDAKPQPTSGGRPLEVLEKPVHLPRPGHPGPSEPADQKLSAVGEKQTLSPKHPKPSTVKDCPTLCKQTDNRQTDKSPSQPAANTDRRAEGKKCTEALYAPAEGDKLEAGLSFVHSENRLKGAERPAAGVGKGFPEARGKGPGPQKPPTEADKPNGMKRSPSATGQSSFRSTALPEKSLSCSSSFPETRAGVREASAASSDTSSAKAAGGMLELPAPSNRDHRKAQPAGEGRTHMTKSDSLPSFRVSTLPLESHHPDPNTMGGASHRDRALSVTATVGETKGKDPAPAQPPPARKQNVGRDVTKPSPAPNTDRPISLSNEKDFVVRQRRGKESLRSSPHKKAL
UniProt Q9Y316: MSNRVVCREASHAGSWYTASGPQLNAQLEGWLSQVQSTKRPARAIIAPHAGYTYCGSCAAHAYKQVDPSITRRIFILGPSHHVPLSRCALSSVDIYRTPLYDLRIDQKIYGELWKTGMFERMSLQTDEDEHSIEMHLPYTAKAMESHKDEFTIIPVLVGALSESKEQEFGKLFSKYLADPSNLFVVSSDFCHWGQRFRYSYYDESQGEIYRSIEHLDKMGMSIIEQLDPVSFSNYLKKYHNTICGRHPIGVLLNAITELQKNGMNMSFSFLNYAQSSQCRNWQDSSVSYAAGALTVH
UniProt Q96GW9: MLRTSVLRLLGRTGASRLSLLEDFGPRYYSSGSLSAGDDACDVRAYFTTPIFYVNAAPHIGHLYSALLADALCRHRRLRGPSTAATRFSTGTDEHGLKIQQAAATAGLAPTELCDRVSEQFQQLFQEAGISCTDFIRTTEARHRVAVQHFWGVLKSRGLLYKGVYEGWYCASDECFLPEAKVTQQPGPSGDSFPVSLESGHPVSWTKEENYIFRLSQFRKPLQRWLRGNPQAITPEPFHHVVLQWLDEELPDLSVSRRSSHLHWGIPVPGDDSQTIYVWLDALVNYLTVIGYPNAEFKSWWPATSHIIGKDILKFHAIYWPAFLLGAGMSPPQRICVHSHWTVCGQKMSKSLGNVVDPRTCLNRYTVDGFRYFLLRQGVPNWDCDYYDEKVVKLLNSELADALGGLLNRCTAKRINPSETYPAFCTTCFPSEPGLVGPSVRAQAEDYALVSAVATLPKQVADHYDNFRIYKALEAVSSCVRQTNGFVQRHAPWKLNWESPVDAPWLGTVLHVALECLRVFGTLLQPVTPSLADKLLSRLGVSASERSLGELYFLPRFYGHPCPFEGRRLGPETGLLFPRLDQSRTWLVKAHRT

This is one part of the list.

Compound in the first test: CC(=O)c1cnc2ccc(-c3cc(Cl)c(O)c(Cl)c3)nc2c1N[C@H]1CC[C@H](CN(C)C)CC1
Briefly: log2 fold change, soluble protein after heating vs DMSO (PISA); higher = thermal stabilisation; K562 cells, 10 uM, 30 min; active = over 0.2 and 3.5 SD of the protein, either way, in both replicates (recomputed). The essentials: (§1)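 K562 cells at 2×10^6 cells/mL were treated with 10 μM compound for 30 min. Aliquots were heated for 3 min across 48°C-58°C, pooled, and extracted in PBS with 0.5% NP-40 at 4°C; soluble protein was the supernatant after 21,000xg for 90 min. Soluble protein was quantified by TMTpro 16plex LC-MS/MS with channel sums equalised, and reported as log2 fold change in thermal stability against DMSO controls, with values from duplicates.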
For MGAT4B isoform 3 (UniProt Q9UQ53), the log2 fold change is inactive: 0.008.

As to MBNL1 (UniProt Q9NR56), the log2 fold change was inactive: 0.021.

As to MEF2D (UniProt Q14814), the log2 fold change is inactive: -0.056.

As for MFSD10 (UniProt Q14728), the log2 fold change was inactive: 0.005.

In the case of MCAM (UniProt P43121), the log2 fold change was inactive: -0.015.

With METTL1 (UniProt Q9UBP6), the log2 fold change was inactive: -0.039.

In the case of MECP2 isoform 2 (UniProt P51608), the log2 fold change is inactive: 0.111.

As for MCM2 (UniProt P49736), the log2 fold change is inactive: -0.026.

Regarding MCM3 isoform 2 (UniProt P25205), the log2 fold change is inactive: -0.035.

Take METTL21A (UniProt Q8WXB1): the log2 fold change was inactive: 0.04.

MDN1 (UniProt Q9NU22): the log2 fold change was inactive: -0.126.

As for MGAT1 (UniProt P26572), the log2 fold change was inactive: -0.087.

As to METAP1D (UniProt Q6UB28), the log2 fold change was inactive: 0.084.

For MED20 (UniProt Q9H944), the log2 fold change is inactive: -0.056.

Regarding METTL14 (UniProt Q9HCE5), the log2 fold change was inactive: -0.02.

Turning to MEAK7 (UniProt Q6P9B6), the log2 fold change is inactive: -0.093.

As to MCRIP1 (UniProt I3L4Q0), the log2 fold change was inactive: -0.046.

Regarding MCM5 (UniProt P33992), the log2 fold change is inactive: -0.042.

Turning to MCUB (UniProt Q9NWR8), the log2 fold change was inactive: -0.076.

MED22 (UniProt Q15528): the log2 fold change was inactive: -0.058.

On to ME2 (UniProt P23368), for which the log2 fold change was inactive: 0.213.

As to MBOAT1 (UniProt Q6ZNC8), the log2 fold change is inactive: 0.064.

With MDC1 (UniProt Q14676), the log2 fold change is inactive: -0.013.

On to MCMBP (UniProt Q9BTE3), for which the log2 fold change is inactive: -0.042.

For the target MATR3 (UniProt P43243), the log2 fold change is inactive: -0.179.

Turning to MFN1 (UniProt Q8IWA4), the log2 fold change is inactive: -0.047.

For the target MAST4 (UniProt O15021), the log2 fold change was inactive: -0.089.

Regarding MED18 (UniProt Q9BUE0), the log2 fold change is inactive: -0.071.

With MAT2A (UniProt P31153), the log2 fold change is inactive: 0.004.

Consider MAVS (UniProt Q7Z434), for which the log2 fold change was inactive: -0.018.

For the target MEMO1 (UniProt Q9Y316), the log2 fold change is inactive: -0.033.

For the target MGST3 (UniProt O14880), the log2 fold change was inactive: 0.036.

Take MED15 (UniProt Q96RN5): the log2 fold change is inactive: -0.145.

With MCFD2 (UniProt Q8NI22), the log2 fold change is inactive: -0.022.

Regarding MARS2 (UniProt Q96GW9), the log2 fold change was inactive: -0.013.

For MED14 (UniProt O60244), the log2 fold change is inactive: -0.347.

On to MFGE8 (UniProt Q08431), for which the log2 fold change is inactive: 0.269.

For MCTS1 isoform 3 (UniProt Q9ULC4), the log2 fold change was inactive: 0.003.

Turning to MCM6 (UniProt Q14566), the log2 fold change was inactive: -0.036.

Compound in the next test: CC(C)(C)Cn1c(N)nc2ccc(-c3[nH]c(C(C)(C)C)nc3-c3ccc(F)cc3)nc21 [ralimetinib]
The description is as above. Put shortly:
as §1
Regarding MGAT4B isoform 3 (UniProt Q9UQ53), the log2 fold change was inactive: -0.054.

As for MBNL1 (UniProt Q9NR56), the log2 fold change is inactive: -0.022.

For MEF2D (UniProt Q14814), the log2 fold change is inactive: -0.05.

For MFSD10 (UniProt Q14728), the log2 fold change was inactive: -0.043.

As to MCAM (UniProt P43121), the log2 fold change was inactive: -0.045.

On to METTL1 (UniProt Q9UBP6), for which the log2 fold change is inactive: 0.041.

Consider MECP2 isoform 2 (UniProt P51608), for which the log2 fold change is inactive: 0.154.

For MCM2 (UniProt P49736), the log2 fold change was inactive: -0.035.

As for MCM3 isoform 2 (UniProt P25205), the log2 fold change is inactive: -0.014.

For the target METTL21A (UniProt Q8WXB1), the log2 fold change is inactive: 0.044.

Consider MDN1 (UniProt Q9NU22), for which the log2 fold change is inactive: -0.015.

In the case of MGAT1 (UniProt P26572), the log2 fold change was inactive: -0.029.

METAP1D (UniProt Q6UB28): the log2 fold change is inactive: 0.01.

Take MED20 (UniProt Q9H944): the log2 fold change was inactive: 0.024.

As for METTL14 (UniProt Q9HCE5), the log2 fold change is inactive: 0.014.

With MEAK7 (UniProt Q6P9B6), the log2 fold change is inactive: 0.078.

In the case of MCRIP1 (UniProt I3L4Q0), the log2 fold change is inactive: -0.16.

Consider MCM5 (UniProt P33992), for which the log2 fold change is inactive: 0.013.

With MCUB (UniProt Q9NWR8), the log2 fold change was inactive: 0.

For MED22 (UniProt Q15528), the log2 fold change is inactive: 0.064.

Turning to ME2 (UniProt P23368), the log2 fold change was inactive: -0.003.

Turning to MBOAT1 (UniProt Q6ZNC8), the log2 fold change is inactive: -0.104.

For the target MDC1 (UniProt Q14676), the log2 fold change is inactive: 0.062.

On to MCMBP (UniProt Q9BTE3), for which the log2 fold change was inactive: -0.003.

With MATR3 (UniProt P43243), the log2 fold change is inactive: -0.076.

For the target MFN1 (UniProt Q8IWA4), the log2 fold change is inactive: -0.027.

As to MAST4 (UniProt O15021), the log2 fold change was active: -0.479.

As to MED18 (UniProt Q9BUE0), the log2 fold change is inactive: -0.079.

Consider MAT2A (UniProt P31153), for which the log2 fold change is inactive: -0.068.

For the target MAVS (UniProt Q7Z434), the log2 fold change is inactive: 0.013.

As to MEMO1 (UniProt Q9Y316), the log2 fold change is inactive: -0.023.

On to MGST3 (UniProt O14880), for which the log2 fold change is inactive: 0.062.

Consider MED15 (UniProt Q96RN5), for which the log2 fold change was inactive: -0.018.

With MCFD2 (UniProt Q8NI22), the log2 fold change was inactive: -0.112.

With MARS2 (UniProt Q96GW9), the log2 fold change was inactive: 0.004.

Consider MED14 (UniProt O60244), for which the log2 fold change is inactive: 0.084.

As for MFGE8 (UniProt Q08431), the log2 fold change is inactive: 0.152.

With MCTS1 isoform 3 (UniProt Q9ULC4), the log2 fold change was inactive: -0.018.

Consider MCM6 (UniProt Q14566), for which the log2 fold change was inactive: -0.028.
